# Measured values taken from the supplement of paper PMC8728848.
# The other results are listed elsewhere or left out.
# B1: CcfD (Bacteroides fragilis), Q5L9G4 (protein)
# chain: MKKQNSIYTLLIALLCFVSSCDYLGVSDQLAGGLQNTEQVFDNVSYTKRWYANVFAGIPDYSGINSVNVGAFKNPWTGMCDELVVGYGNSSKYNNSDRNAANMGFHRYGDCYKYIRQANIFLQKAHPIMTTGTQGDQLLEDELTQMKANVRFMRAFYHYLLFEQYGPIILVKDKIYNATEDQDVPRNTVDEVIEYIDSELTAVASELTQEPIFEDKDYRAWPTKGVALAVRAKLWLYAASPLLNGGYREALSVTNPDGTRLFPDYDAGKWEKALAACKDFIDYAEAGRYELYKEYKDDNGAVIDPDKSVYNLFQKYTHEIIWATANNDWGGMNGDAFDRRIAPRCEKNGLGSTGVTQELVDAFYMKDGFPVSATAYLPQSTLYQEEGYGTYKDQNDNFSKKYTNVTVSNRYLNREPRFYNTVFFNGRQWPVSCNQVLFYNGGNSGVQEGQATLTGYMLFKRFNRSVSLTNPGVASQFRPSIIFRLADFYLMYAEAANEVNPNDARVLKYLNLVRERAGLPDIETLNPAIRGNQELQRAAIQRERQIELATEGQRYFDVRRWMIADKNGEGRQNGYVHGMNVRGESNDKEDFNRIVEASQIVFNRKMYLYPMPDSEMRKTKNLVQNPGW
# Tests used:
# Assay in all cases: glycan array binding signal (z-score within array); higher = stronger binding
# Conditions in all cases: glycan notation: IUPAC condensed, linker removed
# [1] = target: Fuc(a1-2)Gal(b1-4)GlcNAc(b1-3)Gal(b1-4)GlcNAc(b1-2)Man(a1-3)[Fuc(a1-2)Gal(b1-4)GlcNAc(b1-3)Gal(b1-4)GlcNAc(b1-2)Man(a1-6)]Man(b1-4)GlcNAc(b1-4)GlcNAc
# Procedure, shortened: (§1)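 The binding signal is a Z-score computed within each array. Data were drawn from 3228 arrays in the Consortium for Functional Glycomics database, restricted to those with a known protein sequence. Scores were averaged over arrays of the same protein sequence at different concentrations or buffers, and over linkers, and negative values can be taken as non-binding.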
# [2] = target: Fuc(a1-2)Gal(b1-4)GlcNAc(b1-3)Gal(b1-4)GlcNAc(b1-3)Gal(b1-4)GlcNAc
# Procedure, shortened: as §1
# [3] = target: Fuc(a1-2)Gal(b1-4)GlcNAc(b1-3)GalNAc
# Procedure, shortened: as §1
# [4] = target: Fuc(a1-2)Gal(b1-4)GlcNAc(b1-3)[Fuc(a1-2)Gal(b1-4)GlcNAc(b1-6)]GalNAc
# Procedure, shortened: as §1
# [5] = target: Fuc(a1-2)Gal(b1-4)GlcNAc(b1-3)[Fuc(a1-3)[Gal(b1-4)]GlcNAc(b1-6)]Gal(b1-4)Glc
# Procedure, shortened: as §1
# [6] = target: Fuc(a1-2)Gal(b1-4)GlcNAc(b1-6)GalNAc
# Procedure, shortened: as §1
# [7] = target: Fuc(a1-2)Gal(b1-4)GlcNAc6S
# Procedure, shortened: as §1
# [8] = target: Fuc(a1-2)Gal(b1-4)[Fuc(a1-3)]GlcNAc
# Procedure, shortened: as §1
# [9] = target: Fuc(a1-2)Gal(b1-4)[Fuc(a1-3)]GlcNAc(b1-2)Man(a1-3)[Fuc(a1-2)Gal(b1-4)[Fuc(a1-3)]GlcNAc(b1-2)Man(a1-6)]Man(b1-4)GlcNAc(b1-4)[Fuc(a1-6)]GlcNAc
# Procedure, shortened: as §1
# [10] = target: Fuc(a1-2)Gal(b1-4)[Fuc(a1-3)]GlcNAc(b1-2)[Fuc(a1-2)Gal(b1-4)[Fuc(a1-3)]GlcNAc(b1-4)]Man(a1-3)[Fuc(a1-2)Gal(b1-4)[Fuc(a1-3)]GlcNAc(b1-2)Man(a1-6)]Man(b1-4)GlcNAc(b1-4)GlcNAc
# Procedure, shortened: as §1
# [11] = target: Fuc(a1-2)Gal(b1-4)[Fuc(a1-3)]GlcNAc(b1-3)Gal(b1-4)[Fuc(a1-3)]GlcNAc
# Procedure, shortened: as §1
# [12] = target: Fuc(a1-2)Gal(b1-4)[Fuc(a1-3)]GlcNAc(b1-3)Gal(b1-4)[Fuc(a1-3)]GlcNAc(b1-3)Gal(b1-4)[Fuc(a1-3)]GlcNAc
# Procedure, shortened: as §1
# [13] = target: Fuc(a1-2)Gal(b1-4)[Fuc(a1-3)]GlcNAc(b1-3)GalNAc
# Procedure, shortened: as §1
# [14] = target: Fuc(a1-2)Gal(b1-4)[Fuc(a1-3)]GlcNAc(b1-3)[Neu5Ac(a2-6)Gal(b1-4)GlcNAc(b1-6)]Gal(b1-4)Glc
# Procedure, shortened: as §1
# [15] = target: Fuc(a1-2)Gal3S(b1-4)GlcNAc
# Procedure, shortened: as §1
# [16] = target: Fuc(a1-2)Gal6S(b1-3)GlcNAc
# Procedure, shortened: as §1
# [17] = target: Fuc(a1-2)Gal6S(b1-3)GlcNAc6S
# Procedure, shortened: as §1
# Fuc(a1-2)Gal6S(b1-4)Glc = target: Fuc(a1-2)Gal6S(b1-4)Glc
# Procedure, shortened: as §1
# [18] = target: Fuc(a1-2)Gal6S(b1-4)Glc6S
# Procedure, shortened: as §1
# Fuc(a1-2)[Gal(a1-3)]Gal = target: Fuc(a1-2)[Gal(a1-3)]Gal
# Procedure, shortened: as §1
# [19] = target: Fuc(a1-2)[Gal(a1-3)]Gal(b1-3)GalNAc
# Procedure, shortened: as §1
# [20] = target: Fuc(a1-2)[Gal(a1-3)]Gal(b1-3)GalNAc(b1-3)Gal(a1-4)Gal(b1-4)Glc
# Procedure, shortened: as §1
# [21] = target: Fuc(a1-2)[Gal(a1-3)]Gal(b1-3)GlcNAc
# Procedure, shortened: as §1
# [22] = target: Fuc(a1-2)[Gal(a1-3)]Gal(b1-3)GlcNAc(b1-2)Man(a1-3)[Fuc(a1-2)[Gal(a1-3)]Gal(b1-3)GlcNAc(b1-2)Man(a1-6)]Man(b1-4)GlcNAc(b1-4)GlcNAc
# Procedure, shortened: as §1
# [23] = target: Fuc(a1-2)[Gal(a1-3)]Gal(b1-3)GlcNAc(b1-2)Man(a1-3)[Fuc(a1-2)[Gal(a1-3)]Gal(b1-3)GlcNAc(b1-2)Man(a1-6)]Man(b1-4)GlcNAc(b1-4)[Fuc(a1-6)]GlcNAc
# Procedure, shortened: as §1
# [24] = target: Fuc(a1-2)[Gal(a1-3)]Gal(b1-3)GlcNAc(b1-3)GalNAc
# Procedure, shortened: as §1
# [25] = target: Fuc(a1-2)[Gal(a1-3)]Gal(b1-3)GlcNAc(b1-6)GalNAc
# Procedure, shortened: as §1
# [26] = target: Fuc(a1-2)[Gal(a1-3)]Gal(b1-4)Glc
# Procedure, shortened: as §1
# [27] = target: Fuc(a1-2)[Gal(a1-3)]Gal(b1-4)GlcNAc
# Procedure, shortened: as §1
# [28] = target: Fuc(a1-2)[Gal(a1-3)]Gal(b1-4)GlcNAc(b1-2)Man
# Procedure, shortened: as §1
binder,measurement,setting,value
B1,glycan array binding signal (z-score),[1],1.63
same,glycan array binding signal (z-score),[2],0.634
same,glycan array binding signal (z-score),[3],-1.03
same,glycan array binding signal (z-score),[4],-0.732
same,glycan array binding signal (z-score),[5],0.673
same,glycan array binding signal (z-score),[6],0.942
same,glycan array binding signal (z-score),[7],1.37
same,glycan array binding signal (z-score),[8],0.322
same,glycan array binding signal (z-score),[9],-0.082
same,glycan array binding signal (z-score),[10],3.75
same,glycan array binding signal (z-score),[11],0.22
same,glycan array binding signal (z-score),[12],-0.667
same,glycan array binding signal (z-score),[13],-0.778
same,glycan array binding signal (z-score),[14],-0.864
same,glycan array binding signal (z-score),[15],-0.22
same,glycan array binding signal (z-score),[16],0.752
same,glycan array binding signal (z-score),[17],-0.076
same,glycan array binding signal (z-score),Fuc(a1-2)Gal6S(b1-4)Glc,-0.824
same,glycan array binding signal (z-score),[18],-0.956
same,glycan array binding signal (z-score),Fuc(a1-2)[Gal(a1-3)]Gal,-0.653
same,glycan array binding signal (z-score),[19],-0.519
same,glycan array binding signal (z-score),[20],0.312
same,glycan array binding signal (z-score),[21],-0.384
same,glycan array binding signal (z-score),[22],2.68
same,glycan array binding signal (z-score),[23],0.2
same,glycan array binding signal (z-score),[24],0.095
same,glycan array binding signal (z-score),[25],-1.05
same,glycan array binding signal (z-score),[26],-0.489
same,glycan array binding signal (z-score),[27],0.056
same,glycan array binding signal (z-score),[28],0.64

# 2 entries from above in another layout:
binder | measurement | setting | value
B1 | glycan array binding signal (z-score) | [2] | 0.634
same | glycan array binding signal (z-score) | [3] | -1.03
